Results reported in publication PMC1716177.
These are yes or no findings as the source states them, for the method shown. In cells and extracts the contact can be indirect. Some entries that bind do so weakly or less than the wild type. Sequences can lack the tags named with a protein. Values belong to the molecule of their own block, whether it stands above or below them.

The chains behind the UniProt entries cited, without tags or fusion partners.
UniProt P04150: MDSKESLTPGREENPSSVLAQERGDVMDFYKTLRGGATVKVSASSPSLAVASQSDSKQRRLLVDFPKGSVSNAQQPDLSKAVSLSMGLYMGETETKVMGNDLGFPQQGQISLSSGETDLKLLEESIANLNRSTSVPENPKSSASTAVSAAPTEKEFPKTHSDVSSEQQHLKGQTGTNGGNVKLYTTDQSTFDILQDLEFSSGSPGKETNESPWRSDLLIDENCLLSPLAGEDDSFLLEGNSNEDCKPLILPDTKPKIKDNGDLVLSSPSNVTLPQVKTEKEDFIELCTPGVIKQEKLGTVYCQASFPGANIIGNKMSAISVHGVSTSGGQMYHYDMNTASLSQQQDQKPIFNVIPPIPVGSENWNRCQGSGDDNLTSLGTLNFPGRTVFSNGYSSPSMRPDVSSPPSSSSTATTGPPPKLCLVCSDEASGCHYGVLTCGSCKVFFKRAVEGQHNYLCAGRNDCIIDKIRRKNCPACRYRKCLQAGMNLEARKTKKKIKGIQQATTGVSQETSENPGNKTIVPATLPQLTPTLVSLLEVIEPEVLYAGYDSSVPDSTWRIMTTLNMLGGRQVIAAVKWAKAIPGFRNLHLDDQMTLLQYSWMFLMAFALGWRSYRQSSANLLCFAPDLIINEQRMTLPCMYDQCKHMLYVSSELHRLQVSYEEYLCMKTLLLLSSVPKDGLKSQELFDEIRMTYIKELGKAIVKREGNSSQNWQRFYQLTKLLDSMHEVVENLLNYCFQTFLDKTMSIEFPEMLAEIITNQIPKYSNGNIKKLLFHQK

Target: Glucocorticoid receptor (GR) (UniProt P04150)
Assay: co-IP; lysates of transfected Saos-2 cells (50 mM Tris pH 7.5, 150 mM NaCl, 0.5% NP40) immunoprecipitated overnight with anti-GR polyclonal antibody E-20 on protein A agarose, blotted with anti-HA or anti-Flag; cells untreated or treated with dexamethasone (100 nM) and/or MG132 (30 μM); binding most evident with MG132

- binding: binds
Molecule: HA-tagged p53 wild type (from UniProt P04637 1-393)

- binding: binds
B1: HA-tagged human p73β (protein, UniProt O15350-2 1-499)
chain: MAQSTATSPDGGTTFEHLWSSLEPDSTYFDLPQSSRGNNEVVGGTDSSMDVFHLEGMTTSVMAQFNLLSSTMDQMSSRAASASPYTPEHAASVPTHSPYAQPSSTFDTMSPAPVIPSNTDYPGPHHFEVTFQQSSTAKSATWTYSPLLKKLYCQIAKTCPIQIKVSTPPPPGTAIRAMPVYKKAEHVTDVVKRCPNHELGRDFNEGQSAPASHLIRVEGNNLSQYVDDPVTGRQSVVVPYEPPQVGTEFTTILYNFMCNSSCVGGMNRRPILIIITLEMRDGQVLGRRSFEGRICACPGRDRKADEDHYREQQALNESSAKNGAASKRAFKQSPPAVPALGAGVKKRRHGDEDTYYLQVRGRENFEILMKLKESLELMELVPQPLVDSYRQQQQLLQRPSHLQPPSYGPVLSPMNKVHGGMNKLPSVNQLVGQPPPHSSAATPNLGPVGPGMLNNHGHAVPANGEMSSSHSAQSMVSGSHCTPPPPYHADPSLVRTWGP
